Data as given in publication PMC5491494.

Amino acid sequences for entries named in this document (tags omitted). Residues count along the entry.
UniProt Q13148, 1-80: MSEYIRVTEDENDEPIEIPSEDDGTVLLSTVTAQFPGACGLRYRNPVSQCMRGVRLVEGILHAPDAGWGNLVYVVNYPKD

Target: TDP-43 NTD (wild type) (Homo sapiens) (UniProt Q13148)
Assay: EMSA
Details: specific but low affinity; recombinant protein; residues 1-80; protein details: N-terminal His (pET-28a(+)); single-stranded DNA

Sequence: TGTGTGTGTGTG [(TG)6 oligonucleotide]
- binding result: binds

The exact form of at least one protein or probe is not confirmed.
